# Results from the RNAGym collection of RNA variant scans (doi:10.1126/science.aae0568).
# This sample is rich in variants without activity.
# B1: tRNA (parent)
# chain: GUUCCGUUGGCGUAAUGGUAACGCGUCUCCCUCCUAAGGAGAAGACUGCGGGUUCGAGUCCCGUACGGAACG
# Variants of: B1
# Test: yeast fitness relative to wild type (ratio to wild type); higher = fitter; tRNA-Arg(CCU), competitive growth, 37 C, YPD
# In short: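 Genotype frequency changes were the basis for Darwinian fitness relative to wild type. The frequencies came from 100-nucleotide paired-end sequencing of gene amplicons from the start population and each end population of pooled yeast strains with tRNA-Arg(CCU) gene variants at the native locus. Competition ran in YPD at 37°C for 24 hours in six replicates, genotypes needed ≥ 100 starting reads, and estimates < 0.5 were set to 0.5.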
row,Variant,yeast fitness
1,GUUCCAUUGGCGUAAUGGUAACGCGUCUCCCUGCUUAGGAGAAGACUGCGGGUUCGCGUCCCGUACGGAACG [G6A C33G A36U A57C],≤ 0.5
2,GUUCCCCUGGCGUAAUGGUAACGCGUCUCCCUCCUAAGGAGAAGCCUGCGGGUUCGAGUCCCGUCCGGAACG [G6C U7C A45C A65C],≤ 0.5
3,GUUCCGUUGGCGUAACGGGAACGCGUGUCCCUCUUAAGGUGAAGACUGCGGGAUCGAGUCCCGUACGGAUCG [U16C U19G C27G C34U A40U U53A A70U],0.674
4,GUUCCGGUGGCGUAAUGGUAAUGUGUCUCCCUCCUAAGGAGAAGACUGCGGGUUCGAGUCCCGUACGGAACG [U7G C22U C24U],≤ 0.5
5,GUUCCGUUGGCGUAAUGGUAACGGGUCUCCCUCCUAAGGGGAAGACUGCCGGUUCGAGUCCCGUACGGAACG [C24G A40G G50C],0.599
6,GUUCCGUUCGCGUAAUGGAGACGCGUUUCCCUCCUAAGGAGAAGACUGCGGGUUCGAGUCCCGUACGGAACG [G9C U19A A20G C27U],≤ 0.5
7,GUUCCGAUGGCGUAAUGGUAACGCAUCUCCCUCCUAAGGAGAACACUGCGGGUUCGAGUCAUGUAUGGAACG [U7A G25A G44C C61A C62U C66U],≤ 0.5
8,GUUUCGUUCGCGUAAUGGUAACGCCUCUCCUUCCUAAGGAGAAGACUGCGGGUUCGAGUCCCGUACGGAGCG [C4U G9C G25C C31U A70G],≤ 0.5
9,GUUCCGUUGGCGUAAUGGUAACGCGUUUCCCUCCUAAGGGGAAGACUGCGGGUUCGAGUCCGGUACGAAACG [C27U A40G C62G G68A],≤ 0.5
10,GUUCCGUUGGCGUAAUGGUAACGCGUCUCCCUCCUAAGGAGCAGACUGCGAGUUCGAGUCCCGUUCGGAACG [A42C G51A A65U],≤ 0.5
11,GUUCCGGUGGCGUAAUGGUAACGCGUAUCCCUCCUCAGGAGUAGACUGCGGGUUCGAGUCCCGGACGGAACG [U7G C27A A36C A42U U64G],0.528
12,GUUCCGUUGACGUAAUGGUAACGCGUCUCCCUCCUAAGGAGAAGACUGCGAGUUCGAGUCCCGUAUGGAACG [G10A G51A C66U],≤ 0.5
13,GUUCCGUUGGCGUAAUGGUAACGCGUGUCCCUCCUAAGGAGAAGACUGUGGGUUCGAGUCCCGUCCGGAACG [C27G C49U A65C],≤ 0.5
14,GUUCCGUUGGCGUCAUGGUAGCGCGUCUCCCUCCUAAGGAGAAGACUGCGGGUUCGAGUCCCGUACGGAACG [A14C A21G],0.713
15,GUUUAGUUGGCGUAUUGGUAACGCGUCUCCCUCUUAAGGAGAAGACUGCGGGUCCGAGUCCUGUACGGAACG [C4U C5A A15U C34U U54C C62U],≤ 0.5
16,GUUCCGUUAGCGUAAUGGUAACGCGUCUCCCUCCGAAGGAGAAGACUGCGGGUUCGAGUCCCGUGCGGAACG [G9A U35G A65G],≤ 0.5
17,GUUCCGUUGGCGUCAUGGUAACGCGUCUCCCUCCUAAGGAGAAGACUGCGCGUUCGAGUCCCGUACGGAUCG [A14C G51C A70U],≤ 0.5
18,GUUCGGUUGGCGUAAUGGUAACGCGUAUCCCUCCUAAGGAGAAGAUUGCGGGUCCGAGUCCCGUACGGAACG [C5G C27A C46U U54C],≤ 0.5
19,GUUCCGUUGGCGUAAUGGUAACGCGUCUCGCUCGAAAGGAGAAGACUGCGGGUUCGAGUCCCGUACGAAACG [C30G C34G U35A G68A],≤ 0.5

row,Variant,yeast fitness
1,GUUCAGUUGGCGUAAUGGUAACACGUCUCCCUCCUAAGGAGAAGACUGCGGGUUCGAAUCCCGUACGGAACG [C5A G23A G58A],≤ 0.5
2,GUUCAGUUGGCGUAAUGGUAACGGGUCUCCGUACUAAGGAGAAGACUGCGGGUUCGACUACCGUACGGACCG [C5A C24G C31G C33A G58C C60A A70C],≤ 0.5
3,GUUCCGUUGGCGUAAUGGUAACGCGUCUCCCUCCUAAGGAGAAGACUGUGAGUUGGAGUCCCCUACGGAACG [C49U G51A C55G G63C],≤ 0.5
4,GUUCCGUUGGCGAAAUGGUAACGCGUCUCCCGCCUAAGGAGAAGACAGCGGGUUCGAGUCCCGACCAGAACG [U13A U32G U47A U64A A65C G67A],≤ 0.5
5,GUUCCGUUCGCGUCAUGGUAAGGCGUCUCCCUCCUAAGGAGAAGACUGCGGGGUCCAGUCCCGUACGGAACG [G9C A14C C22G U53G G56C],≤ 0.5
6,GUUCCGUCGGCGUAAUGGUAACGCGUCUCCCUCCUAAGGAGAAGAUUGCGGGUUCGAGUCGCGUACGGAACG [U8C C46U C61G],≤ 0.5
7,GUUCCGUUGGCGUAAUGGUAACGCGUCUCCCUCCUAUGGAGAUGACUGCAGGUUCGAGUCCCGUACGGAACG [A37U A43U G50A],≤ 0.5
8,GUUCCGUUGGCAUAAUGGUAACGCGUCUCGCUGUUAAGGAGUAGACUGCGGGUUCGAGUCCCGUCCGGAACG [G12A C30G C33G C34U A42U A65C],≤ 0.5
9,GCUCCGUUGGCGUAAUGGUAACGCGUCUGCCUCCUAAGGAGAAGACUGCGGGUUCGAGUCCCGUACGGACCG [U2C C29G A70C],≤ 0.5
10,GUUCGGUUGGCGUAAUGGUAACGUGUUUCCCCCCUAAGGAGAAGACUGCGGGUUCGAGUCCCGUACGGAACG [C5G C24U C27U U32C],≤ 0.5
11,GUUCCCUUGGCGUCAUGGUAACGCGUCUCCCUCCUAAGGAGAAGACUGCGGGUUCGAGUGCCCUACGGAACG [G6C A14C C60G G63C],≤ 0.5
12,GUUCCGUUGGCGUAAUGGUAACGCGUCUUCCUCCUAAAGAGAAGACUCCGGGUUCGGGUCCCGUACGGAACG [C29U G38A G48C A57G],≤ 0.5
13,GUUCCGUUGGCGUAAUGGUAACGUGUCUUCCUCCUAAGGAGAAGACUGCGGGUUCGAGUCCCGUCCGGAACG [C24U C29U A65C],≤ 0.5
14,GUUACGUUGGCGUAAUGGUAACGUGUCUCCCUCCUAAGGAGAAGACUGCAGGUUCGAGUCCCGUUCGGAACG [C4A C24U G50A A65U],≤ 0.5
15,GUUCGGUUGGCGUAAUGGUGACGCGUCUCCCUCCUAGGGAGAAGAGUGCGGGUUCGCGUCCCGUACGGAACG [C5G A20G A37G C46G A57C],≤ 0.5
16,GUUCCGUUGGCGUAAUGAUAACGCGUCUCCCUUCUAAGGAGAAGACUGCGGGUUCGAGUCCCAUAUGGAACG [G18A C33U G63A C66U],≤ 0.5
17,GUUCCGUUGGCGUAAUGGUAACACGUCUCCCUCCUCCGGAGAAGACUGCGGGGUCGAGUCCCGUACGGACCG [G23A A36C A37C U53G A70C],≤ 0.5
18,GUUCCGAUGGCGUAAUGGUAACGCGUCUCCCUCGUAAGGAGAAGACUGCGGGAUCGAGUCCCGUACGGAACG [U7A C34G U53A],≤ 0.5
